Data as given in PubChem BioAssay AID1259254 (NCATS, 2017)
The whole screen tested about 59,000 reagents; below is a random part of them. About 1,550 of all reagents (2.6%) were called active. 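G2 share is only a proxy for re-replication; each gene was hit by three separate siRNAs, and active genes were retested.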 A number with no mark means an inactive call. The numbers tell different reagents against one gene apart. Not all columns of the deposit are shown. No sequences are given here. Not stated in the record: the amount of reagent.

Assay: 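Gene knock-downs that lead to re-replication, shown by excess G2 DNA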 (primary screen)
Cells: human HCT116 colorectal cancer cells
Reagents: single siRNA against human genes
Duration: 3 days
Detection: 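Imaged Hoechst DNA stain sorts each cell into a cycle phase by DNA amount; per plate, G2 fraction set to 0% for non-targeting and 100% for GMNN siRNA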
Scale: G2 robust z-score and G2 cells, % of GMNN control: higher = more G2 cells, more excess DNA replication
Rule for the call: 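Active siRNAs have a G2 robust z of 5 or more median absolute deviations over the median, which in these data means about 38% or higher of GMNN control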

Against CELSR2 (GeneID 1952) #1 the deposit lists G2 robust z-score -0.444; G2 cells, % of GMNN control -0.157.
CELSR2 (GeneID 1952) #2 gave G2 robust z-score 1.59; G2 cells, % of GMNN control 14.2.
After knock-down of CELSR2 (GeneID 1952) #3 the results were G2 robust z-score -0.556; G2 cells, % of GMNN control -0.944.
Silencing of ZNF92 (GeneID 168374) #1 gave: G2 robust z-score -0.932; G2 cells, % of GMNN control -3.59.
Silencing of ZNF92 (GeneID 168374) #2 resulted in: G2 robust z-score 0.201; G2 cells, % of GMNN control 4.38.
ZNF92 (GeneID 168374) #3 scored G2 robust z-score -0.403; G2 cells, % of GMNN control 0.134.
With knock-down of PDE11A (GeneID 50940) #1 the results were G2 robust z-score -0.767; G2 cells, % of GMNN control -2.43.
PDE11A (GeneID 50940) #2 scored G2 robust z-score 1.62; G2 cells, % of GMNN control 14.4.
Knock-down of PDE11A (GeneID 50940) #3 came out at: G2 robust z-score -0.00657; G2 cells, % of GMNN control 2.92.
Silencing of SIRT3 (GeneID 23410) #1 resulted in: G2 robust z-score -0.21; G2 cells, % of GMNN control 1.49.
For SIRT3 (GeneID 23410) #2, the values are G2 robust z-score -0.808; G2 cells, % of GMNN control -2.72.
With knock-down of SIRT3 (GeneID 23410) #3, the record shows G2 robust z-score 3.53; G2 cells, % of GMNN control 27.8.
ELK4 (GeneID 2005) #1 scored G2 robust z-score 0.318; G2 cells, % of GMNN control 5.21.
Against ELK4 (GeneID 2005) #2 the deposit lists G2 robust z-score 2.5; G2 cells, % of GMNN control 20.6.
After knock-down of ELK4 (GeneID 2005) #3 the results were G2 robust z-score -1.44; G2 cells, % of GMNN control -7.15.
With knock-down of LRP2 (GeneID 4036) #1, the record shows G2 robust z-score -0.284; G2 cells, % of GMNN control 0.969.
With knock-down of LRP2 (GeneID 4036) #2, the record shows G2 robust z-score -0.316; G2 cells, % of GMNN control 0.747.
With knock-down of LRP2 (GeneID 4036) #3 the results were G2 robust z-score -1.09; G2 cells, % of GMNN control -4.68.
Against AKR7A2 (GeneID 8574) #1, the values are G2 robust z-score 0.0152; G2 cells, % of GMNN control 3.07.
With knock-down of AKR7A2 (GeneID 8574) #2, the screen gave G2 robust z-score -0.097; G2 cells, % of GMNN control 2.28.
Silencing of AKR7A2 (GeneID 8574) #3 resulted in: G2 robust z-score 1.45; G2 cells, % of GMNN control 13.2.
Knock-down of TOMM22P5 (GeneID 390007) #1 gave: G2 robust z-score -1.09; G2 cells, % of GMNN control -4.67.
Knock-down of TOMM22P5 (GeneID 390007) #2 came out at: G2 robust z-score -0.325; G2 cells, % of GMNN control 0.684.
After knock-down of TOMM22P5 (GeneID 390007) #3 the results were G2 robust z-score -0.0471; G2 cells, % of GMNN control 2.64.

2 entries from above, sorted by “G2 cells, % of GMNN control”, low to high:
ELK4 (GeneID 2005) #3: G2 robust z-score = -1.44; G2 cells, % of GMNN control = -7.15
ELK4 (GeneID 2005) #2: G2 robust z-score = 2.5; G2 cells, % of GMNN control = 20.6
